Values joined by “and” are separate entries in the source; they are usually repeats but may differ in a detail not shown here. Equal values may be shown once. The name of at least one read-out is uncertain.
Test system: Obese mice [C57 BI/6J (ob/ob)] and diabetic mice [C57 BI/Ks (db/db)]
Experiment: Hypoglycemic activity: plasma/blood glucose in obese (ob/ob) and diabetic (db/db) mice fed test compound in chow
Assay type: in vivo
[1] = db/db mice, dose 0.1 % (W/W) in chow, day 0 (before first treatment)
[2] = db/db mice, dose 0.1 % (W/W) in chow, day 7
[3] = db/db mice, dose 0.1 % (W/W) in chow, day 14
[4] = ob/ob mice, dose 0.01 % (W/W) in chow, day 0 (before first treatment)
[5] = ob/ob mice, dose 0.01 % (W/W) in chow, day 7
[6] = ob/ob mice, dose 0.01 % (W/W) in chow, day 14
[7] = ob/ob mice, dose 0.1 % (W/W) in chow, day 0 (before first treatment)
[8] = ob/ob mice, dose 0.1 % (W/W) in chow, day 5
[9] = ob/ob mice, dose 0.1 % (W/W) in chow, day 7
[10] = ob/ob mice, dose 0.1 % (W/W) in chow, day 14
[11] = ob/ob mice, dose 0.025 % (W/W) in chow, day 0 (before first treatment)
[12] = ob/ob mice, dose 0.025 % (W/W) in chow, day 7
[13] = ob/ob mice, dose 0.025 % (W/W) in chow, day 14

CC(C)(C)c1ccc(Nc2nccc(-c3ccncc3)n2)cc1 [N-[4-(1,1-Dimethylethyl) phenyl]-4-(4-pyridinyl)-2-pyrimidin] [N-[4-(1,1-Dimethylethyl)phenyl]-4-(4-pyridinyl)-2-pyrimidinamine]
Blood Glucose Levels in mg/100ml (db/db mice, dose 0.01 % (W/W) in chow, day 0 (before first treatment)): 431 mg/100ml | Blood Glucose Levels in mg/100ml (db/db mice, dose 0.01 % (W/W) in chow, day 7): 335 mg/100ml | Blood Glucose Levels in mg/100ml (db/db mice, dose 0.01 % (W/W) in chow, day 14): 407 mg/100ml | Blood Glucose Levels in mg/100ml (db/db mice, dose 0.01 % (W/W) in chow, day 21): 400 mg/100ml | Blood Glucose Levels in mg/100ml (db/db mice, dose 0.01 % (W/W) in chow, day 28): 499 mg/100ml | Blood Glucose Levels in mg/100ml (db/db mice, dose 0.05 % (W/W) in chow, day 0 (before first treatment)): 429 mg/100ml | Blood Glucose Levels in mg/100ml (db/db mice, dose 0.05 % (W/W) in chow, day 7): 314 mg/100ml | Blood Glucose Levels in mg/100ml (db/db mice, dose 0.05 % (W/W) in chow, day 14): 293 mg/100ml | Blood Glucose Levels in mg/100ml (db/db mice, dose 0.05 % (W/W) in chow, day 21): 250 mg/100ml | Blood Glucose Levels in mg/100ml (db/db mice, dose 0.05 % (W/W) in chow, day 28): 270 mg/100ml | Blood Glucose Levels in mg/100ml [1]: 426 mg/100ml | Blood Glucose Levels in mg/100ml [2]: 390 mg/100ml | Blood Glucose Levels in mg/100ml [3]: 174 mg/100ml | Blood Glucose Levels in mg/100ml (db/db mice, dose 0.1 % (W/W) in chow, day 21): 281 mg/100ml | Blood Glucose Levels in mg/100ml (db/db mice, dose 0.1 % (W/W) in chow, day 28): 207 mg/100ml | Blood Glucose Levels in mg/100ml [4]: 214 mg/100ml | Blood Glucose Levels in mg/100ml [5]: 163 mg/100ml | Blood Glucose Levels in mg/100ml [6]: 138 mg/100ml | Blood Glucose Levels in mg/100ml (ob/ob mice, dose 0.01 % (W/W) in chow, day 21): 181 mg/100ml | Blood Glucose Levels in mg/100ml (ob/ob mice, dose 0.01 % (W/W) in chow, day 28): 162 mg/100ml | Blood Glucose Levels in mg/100ml (ob/ob mice, dose 0.05 % (W/W) in chow, day 0 (before first treatment)): 214 mg/100ml | Blood Glucose Levels in mg/100ml (ob/ob mice, dose 0.05 % (W/W) in chow, day 7): 139 mg/100ml | Blood Glucose Levels in mg/100ml (ob/ob mice, dose 0.05 % (W/W) in chow, day 14): 143 mg/100ml | Blood Glucose Levels in mg/100ml (ob/ob mice, dose 0.05 % (W/W) in chow, day 21): 180 mg/100ml | Blood Glucose Levels in mg/100ml (ob/ob mice, dose 0.05 % (W/W) in chow, day 28): 188 mg/100ml | Blood Glucose Levels in mg/100ml [7]: 208 mg/100ml and 214 mg/100ml and 218 mg/100ml and 229 mg/100ml and 225 mg/100ml | Blood Glucose Levels in mg/100ml [8]: 114 mg/100ml and 169 mg/100ml and 124 mg/100ml and 118 mg/100ml | Blood Glucose Levels in mg/100ml [9]: 175 mg/100ml and 155 mg/100ml and 120 mg/100ml | Blood Glucose Levels in mg/100ml [10]: 116 mg/100ml | Blood Glucose Levels in mg/100ml (ob/ob mice, dose 0.1 % (W/W) in chow, day 21): 131 mg/100ml | Blood Glucose Levels in mg/100ml (ob/ob mice, dose 0.1 % (W/W) in chow, day 28): 135 mg/100ml

c1ccc(-c2ccnc(Nc3ccc(-n4ccnc4)cc3)n2)nc1 [N-[4-(1H-Imidazol-1-yl)phenyl]-4-(2-pyridinyl)-2-pyrimid-ina] [N-[4-(1H-Imidazol-1-yl)phenyl]-4-(2-pyridinyl)-2-pyrimid-inamine]
Blood Glucose Levels in mg/100ml [7]: 217 mg/100ml and 223 mg/100ml and 234 mg/100ml | Blood Glucose Levels in mg/100ml [8]: 171 mg/100ml and 167 mg/100ml and 141 mg/100ml

c1csc(-c2ccnc(Nc3ccc(-n4ccnc4)cc3)n2)c1 [N-[4-(1H-Imidazol-1-yl)phenyl]-4-(2-thienyl)-2-pyrimid-inami] [N-[4-(1H-Imidazol-1-yl)phenyl]-4-(2-thienyl)-2-pyrimid-inamine]
Blood Glucose Levels in mg/100ml [1]: 423 mg/100ml | Blood Glucose Levels in mg/100ml [2]: 492 mg/100ml | Blood Glucose Levels in mg/100ml [3]: 349 mg/100ml | Blood Glucose Levels in mg/100ml [4]: 217 mg/100ml | Blood Glucose Levels in mg/100ml [5]: 212 mg/100ml | Blood Glucose Levels in mg/100ml [6]: 161 mg/100ml | Blood Glucose Levels in mg/100ml [11]: 221 mg/100ml and 218 mg/100ml | Blood Glucose Levels in mg/100ml [12]: 147 mg/100ml and 175 mg/100ml | Blood Glucose Levels in mg/100ml [13]: 171 mg/100ml and 185 mg/100ml | Blood Glucose Levels in mg/100ml [7]: 221 mg/100ml and 224 mg/100ml and 203 mg/100ml and 231 mg/100ml and 218 mg/100ml and 220 mg/100ml | Blood Glucose Levels in mg/100ml [8]: 125 mg/100ml and 131 mg/100ml and 126 mg/100ml and 134 mg/100ml | Blood Glucose Levels in mg/100ml [9]: 109 mg/100ml and 135 mg/100ml | Blood Glucose Levels in mg/100ml [10]: 116 mg/100ml and 117 mg/100ml

c1cncc(-c2ccnc(Nc3ccc(-n4ccnc4)cc3)n2)c1 [N-[4-(1H-Imidazol-1-yl)phenyl]-4-(3-pyridinyl)-2-pyrim-idina] [listing 1 of 2 here]
Blood Glucose Levels in mg/100ml [7]: 225 mg/100ml | Blood Glucose Levels in mg/100ml [8]: 128 mg/100ml

c1cncc(-c2ccnc(Nc3ccc(-n4ccnc4)cc3)n2)c1 [N-[4-(1H-Imidazol-1-yl)phenyl]-4-(3-pyridinyl)-2-pyrim-idina] [listing 2 of 2 here]
Blood Glucose Levels in mg/100ml [11]: 208 mg/100ml | Blood Glucose Levels in mg/100ml [12]: 159 mg/100ml | Blood Glucose Levels in mg/100ml [13]: 171 mg/100ml | Blood Glucose Levels in mg/100ml [7]: 218 mg/100ml | Blood Glucose Levels in mg/100ml [9]: 127 mg/100ml | Blood Glucose Levels in mg/100ml [10]: 131 mg/100ml

CN1CCN(c2ccc(Nc3nccc(-c4ccccn4)n3)cc2)CC1 [N-[4-(4-Methyl-1-piperazinyl)phenyl] -4-(2-pyridinyl)-2-pyrimidinamine]
Blood Glucose Levels in mg/100ml [7]: 204 mg/100ml | Blood Glucose Levels in mg/100ml [8]: 210 mg/100ml

From patent EP0233461B2, “4,5,6-Substituted-2-pyrimidinamines” (AMERICAN CYANAMID COMPANY, priority 1986, dated 1987)
